Some of the results follow. Shown are side measurements of this screen, not its main read-out; they come without a call. Most of these compounds were active or inconclusive in the main read-out, so they are no random draw. Potencies come from curve fits of mixed quality, noted in brackets.
Assay: qHTS Assay to Find Inhibitors of Chronic Active B-Cell Receptor Signaling
Settings: ABC-DLBCL IkBa-CBG/CBR reporter, luminescence ratio (green luciferase fused to IkBa over red control in TMD8 lymphoma cells), 4 h
Method in brief: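 TMD8 ABC-DLBCL cells carrying doxycycline-inducible green luciferase fused to IkappaBalpha plus unfused red luciferase were exposed to compounds (up to 46 uM) for 4 hrs at 37C. Activity came from the overlap-corrected green/red luminescence ratio.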

[1] = measured here: CBR red luminescence, cell number
[2] = measured here: IkBa-CBG green luminescence

SMILES | AC50 [1] | AC50 [2]
O=C(Nc1cccc(F)c1)c1c(F)c(F)c(F)c(F)c1F | 23.1 µM [falling, single point] | –
Cc1ccc(OCc2nc(-c3ccccn3)no2)c(Br)c1 | 35.5 µM [falling, single point] | –
CCN1C(=O)C(O)(CC(=O)/C=C/C=C/c2ccccc2)c2ccccc21 (centres undefined) | 35.5 µM [falling, single point] | –
NNC(=O)c1cc(-c2ccco2)[nH]n1 | 12.6 µM [falling, partial curve, poor fit] | –
COc1ccccc1C(=O)NC(=O)COc1ccc(Cl)cc1Cl | 8.2 µM [rising, partial curve, poor fit] | –
COc1ccc(Cn2c(=O)n(-c3ccc(OC)cc3)c(=O)c3c2c2cc(OC)ccc2n3C)cc1 | 35.5 µM [rising, single point] | –
O=C(c1cc(-c2ccc3c(c2)OCO3)on1)N1CCOCC1 | 0.731 µM [falling, full curve, poor fit] | –
O=C(O)CN1C(=O)/C(=C/c2ccc(SCc3ccccc3)o2)SC1=S | 35.5 µM [falling, single point] | 5.62 µM [falling, single point]
CC(C)S(=O)(=O)c1csc(C(=O)Nc2ccc(F)cc2)c1N | 8.91 µM [falling, partial curve] | –
Clc1ccc(-c2cc3ccccc3[nH]2)cc1 | 1 µM [rising, partial curve, poor fit] | –
CN(C)CCCN(C(=O)c1cccc(N2C(=O)CCC2=O)c1)c1nc2cc3c(cc2s1)OCO3 | 35.5 µM [falling, single point] | –
COc1cccc(C(=O)NCCOc2cc(C)cc(C)c2)c1 | 18.4 µM [falling, partial curve, poor fit] | 29.1 µM [rising, partial curve, poor fit]
Cn1c(C(=O)N2CCC(C(N)=O)CC2)cc2c(=O)n(C)c3ccccc3c21 | 0.92 µM [rising, full curve, poor fit] | –
COCCN(C(=O)c1ccc(C)o1)c1c(N)n(CC(C)C)c(=O)[nH]c1=O | 16.4 µM [rising, partial curve, poor fit] | –
Cc1nc2scc(C)n2c(=O)c1S(=O)(=O)Nc1ccc(OC(F)(F)F)cc1 | 7.94 µM [falling, partial curve] | –
COc1ccccc1C(=O)Oc1ccc(C(C)(C)C)cc1 | 20.6 µM [rising, single point] | –
c1ccc(-c2n[nH]c(-c3ccccn3)n2)nc1 | 6.51 µM [rising, single point] | –
CC(=O)c1cc(NC(=O)c2cccc(C(F)(F)F)c2)c(=O)oc1C | 15.8 µM [falling, partial curve, poor fit] | –
Cc1ccc(C(=O)Nc2nc3nc(-c4ccccc4)cc(=O)n3[nH]2)cc1 | 29.1 µM [rising, single point] | –
O=C1c2ccccc2C(=O)N1CCCCSc1nnc(-c2ccc(OC(F)F)cc2)o1 | 2.06 µM [falling, full curve] | –

SMILES | AC50 [1] | AC50 [2]
CN(Cc1ccccc1)C(=O)COC(=O)c1cc2ccccc2oc1=O | 0.326 µM [rising, full curve, poor fit] | –
CCN(CC)C(=O)OCc1c(-c2cccc(OC)c2)ncc2ccccc12 | 32.6 µM [falling, single point] | –
CC(NC(=O)Nc1ccc([N+](=O)[O-])cc1)C(c1cccs1)N1CCCC1 (centres undefined) | 6.51 µM [rising, single point] | –
CCCN1CCC2(CC1)C(C#N)=C(N)Oc1c2sc2nc(C)cc(C)c12 | 35.5 µM [falling, single point] | –
O=C(N/N=C/c1ccco1)c1cccc(NC(=O)c2ccccc2Cl)c1 | 28.2 µM [falling, single point] | –
O=C(O)/C=C/c1cccc2c1OCCO2 | 22.4 µM [falling, single point] | –
Cc1nc(SCC(=O)c2ccccc2)n[nH]1 | 35.5 µM [falling, single point] | –
Cc1cccc(-c2noc(CCCC(=O)NC3CCCC3)n2)c1 | 35.5 µM [rising, partial curve, poor fit] | 3.16 µM [rising, partial curve, poor fit]
O=C(O)C(Nc1nc(C(F)(F)F)nc2ccccc12)c1ccccc1 (centres undefined) | 17.8 µM [falling, single point] | –
Cc1[nH]c(=O)[nH]c(=O)c1S(=O)(=O)Nc1cccc([N+](=O)[O-])c1C | 0.562 µM [rising, full curve, poor fit] | –
Cn1nc(CC(=O)Nc2ncc(Br)s2)c2ccccc2c1=O | 0.291 µM [rising, full curve, poor fit] | –
Cc1nc2ccccc2c2oc(C(=O)NCC3COc4ccccc4O3)cc12 (centres undefined) | 20.6 µM [falling, partial curve] | 7.31 µM [rising, partial curve, poor fit]
CN(c1ccccc1)S(=O)(=O)c1ccc(C(=O)NCc2ccccc2F)cc1 | 29.1 µM [rising, single point] | –
COC(=O)c1c(NC(=O)CCC(=O)O)sc2c1CCCCC2 | 18.4 µM [falling, single point] | –
CCCN=Cc1c(CCC)[nH]n(-c2nc3ccccc3s2)c1=O | 12.6 µM [falling, single point] | –
COc1cc(C(=O)Nc2nc(-c3ccc(F)cc3)cs2)ccc1OCC(=O)N1CCOCC1 | 23.1 µM [falling, single point] | –
Nn1c(SCc2ccc(C(=O)O)cc2)nnc1-c1ccc(Cl)cc1Cl | 7.94 µM [falling, partial curve, poor fit] | –
COC(=O)c1cc(NC(=O)N2c3ccccc3Sc3ccccc32)cc(C(=O)OC)c1 | 3.16 µM [rising, single point] | –
O=C1c2ccccc2NC(c2c(Cl)cccc2Cl)N1Cc1ccccc1 (centres undefined) | 10 µM [falling, partial curve] | –
COc1ccc(C(=O)C(CN2CCOCC2)c2ccccc2)cc1F (centres undefined) | 7.08 µM [falling, partial curve] | –

By substructure, the compounds so far with a COOH group
SMILES | AC50 [1] | AC50 [2]
O=C(O)CN1C(=O)/C(=C/c2ccc(SCc3ccccc3)o2)SC1=S | 35.5 µM [falling, single point] | 5.62 µM [falling, single point]
O=C(O)/C=C/c1cccc2c1OCCO2 | 22.4 µM [falling, single point] | –
O=C(O)C(Nc1nc(C(F)(F)F)nc2ccccc12)c1ccccc1 (centres undefined) | 17.8 µM [falling, single point] | –
COC(=O)c1c(NC(=O)CCC(=O)O)sc2c1CCCCC2 | 18.4 µM [falling, single point] | –
Nn1c(SCc2ccc(C(=O)O)cc2)nnc1-c1ccc(Cl)cc1Cl | 7.94 µM [falling, partial curve, poor fit] | –
